Measurements as given in patent US20210107886A1, “PREPARATION OF CYCLIC ACETALS FOR FUEL” (TRIAD NATIONAL SECURITY, LLC, priority 2019, published 2021).

Experiment: Yield sooting index (YSI)
Details: not given
Description: All chemicals and reagent grade solvents were obtained from commercial vendors and were used as received. ^1H and ^13C NMR spectra were obtained at room temperature on a Bruker AV400 MHz spectrometer, with chemical shifts (6) referenced to the residual solvent signal (^1H and ^13C). GC/MS analysis was carried out using a Hewlett-Packard 6890 GC system equipped with a Hewlett-Packard 5973 mass selective detector. FT-IR measurements were collected on a Perkin Elmer Spectrum Two FT-IR, where a drop of compound was pressed between two KBr plates. FTIR shifts were: very strong (vs), strong (s), medium (m), and weak (w). Combustion calorimeter measurements were performed using an IKA C1 compact combustion calorimeter, the NHOC was calculated by taking into consideration the hydrogen content and subtracting from the gross heat of combustion. DSC measurements were performed using a Netzsch DCS 204 F1 Phoenix. Viscosity and density measurements were performed using an Anton Paar SVM 3001. Elemental analysis was performed by Atlantic Microlabs. YSI measurements were conducted at Yale University.
For CCC(CC)C1OC(C)C(C)O1 (centres unmarked) [Compound 1, 2-(1-Ethylpropyl)-4,5-dimethyl-1,3-dioxolane], the “YSI (yield sooting index)” value was 58. With CCCCC(CC)C1OC(C)C(C)O1 (centres unmarked) [Compound 2, 2-(1-Ethylpentyl)-4,5-dimethyl-1,3-dioxolane] the “YSI (yield sooting index)” value was 69. For CCCC1OC(C)C(C)O1 (centres unmarked) [Compound 3, 4,5-Dimethyl-2-propyl-1,3-dioxolane], the “YSI (yield sooting index)” value was 36. With CCCCCC1OC(C)C(C)O1 (centres unmarked) [Compound 4, 4,5-Dimethyl-2-pentyl-1,3-dioxolane] the “YSI (yield sooting index)” value was 49. For CCCCCCCC1OC(C)C(C)O1 (centres unmarked) [Compound 5, 4,5-Dimethyl-2-heptyl-1,3-dioxolane], the “YSI (yield sooting index)” value was 63.

Experiment: not given
Details: taken from references; cited from earlier work
For CCCCCCCCCCCC1(C)OC(C)C(C)O1 (centres unmarked) [H1, 2,4,5-trimethyl-2-undecyl-1,3-dioxolane], the “DCN (derived cetane number)” value is listed as 84. For CCCCCCCCCCCC1(C)OCC(C)O1 (centres unmarked) [H2, 2,4-dimethyl-2-undecyl-1,3-dioxolane], the “DCN (derived cetane number)” value is given as 91. In the case of CCCCCCCCCCCC1(C)OCCO1 [H3, 2-methyl-2-undecyl-1,3-dioxolane], the “DCN (derived cetane number)” value is listed as 81.
